Like-named read-outs stand apart in the source and are kept apart here.
Tests used:
[1] = symmetric NRFB, two electrons per side, cited from earlier work
[2] = Charging/discharging, symmetric NRFB H-cell, glass frit separator; conditions: for Coulombic efficiency: 100 cycles, 450 h
Protocol: Complex 2b was tested in both symmetric and asymmetric NRFB configurations and in both cases, an anion exchange membrane (AEM), and a glass frit as separator between the working electrode and counter electrode compartments were trialed. […] A current of 0.2 mA for the charge and 0.2 mA for the discharge were chosen as described below. Two consecutive plateaus are observed for each charging and discharging process, indicative of two electron transfer processes (FIGS. 12A-B and 13).
The first plateau at −0.97 V is determined by the oxidation of 2b^− to 2b in the cathodic compartment, and the concurrent reduction of 2b^− to 2b^2− in the anodic compartment. The second plateau at −0.21 V is determined by the oxidation of 2b to 2b^+ in the cathodic compartment, with concurrent reduction of 2b^2− to 2b^3− in the anodic compartment. Upon discharge, the reduction of 2b^+ to 2b and 2b to 2b^− in the cathodic compartment results in a small potential drop, with discharging plateaus of −0.98 and −0.24 V, respectively.
Charge-discharge studies were performed inside of a glovebox under an inert atmosphere using a CH Instruments Electrochemical Analyzer Model 1400. The custom H-cell was designed by Adams and Chittenden (FIGS. 21A-B and 22) with compartments separated by an AMI-7001S Anion exchange membrane (Membrane International Inc.) or glass frit. If a membrane was used, it was soaked in 0.5 M nBu4NBF4MeCN electrolyte solution for 48 h prior to use. […] In the asymmetric studies, the counter compartment contained only 3.5 mL 0.5 M nBu4NBF4MeCN electrolyte solution, and an isomolded graphite rod counter electrode. For the studies with a symmetric NRFB configuration, the first cycle was a galvanostatic charging of a concentrated solution of 2b to 2b^− (compounds shown in FIG. 2); 3.5 mL 0.5 M nBu4NBF4MeCN electrolyte solution was charged to the counter compartment, and 3.5 mL 15 mM 2b in 0.5 M nBu4NBF4MeCN electrolyte solution was charged to the working compartment. A 0.2 mA current was applied to the working compartment until a potential cut-off of −0.6 V was reached (approximately 2 hours). The electrolyte solution in the counter compartment was then discarded and 1.75 mL of the 15 mM 2b^− was charged to the counter compartment and both compartments were diluted to reach 3.5 mL of 7.5 mM 2b^−. […] Between experiments, the electrodes were soaked and sonicated with 1M HCl, followed by distilled water twice, then acetone. They were then dried at 100° C. for two hours prior to use.
Determination of 70% state of charge (SOC). Theoretical capacity of the cell=0.0215 mmol×96,485.33 sA/mol=2.07 sA=0.576 mAh 70% state of charge=0.403 mAh Galvanostatic charging current for 2 h at 70% SOC: 0.403 mAh/2 h=0.201 mA Galvanostatic discharging current for 2 h at 70% SOC: 0.403 mAh/2 h=0.201 mA where jp is the current density in A/cm^2, ne is the number of electrons (here ne=1), D0 is the diffusion coefficient (cm^2/s), C0 is the bulk concentration (mol/mL) and v is the scan rate (V/s). Straight lines fit to these plots indicate that the electron transfer events can be considered reversible.

[3] = Charging/discharging, asymmetric H-cell, anion exchange membrane separator
Protocol: Complex 2b was also tested as an analyte in an asymmetric cell configuration because this allowed us to achieve a cell design where up to four electrons are stored during each charge and discharge cycle. Using an AEM as separator, potentials and currents were initially chosen to maximize the energy density of the cell: storing 4 electrons in the battery. Over 10 cycles and 45 h, a Coulombic efficiency of 98% was observed (FIGS. 17A-C). […] An asymmetric cell with 2b functioning as a four-electron analyte could be revisited as AEM technology is refined.
Charge-discharge studies were performed inside of a glovebox under an inert atmosphere using a CH Instruments Electrochemical Analyzer Model 1400. The custom H-cell was designed by Adams and Chittenden (FIGS. 21A-B and 22) with compartments separated by an AMI-7001S Anion exchange membrane (Membrane International Inc.) or glass frit. If a membrane was used, it was soaked in 0.5 M nBu4NBF4MeCN electrolyte solution for 48 h prior to use. […] In the asymmetric studies, the counter compartment contained only 3.5 mL 0.5 M nBu4NBF4MeCN electrolyte solution, and an isomolded graphite rod counter electrode. […]

[4] = Charging/discharging, asymmetric H-cell, glass frit separator; conditions: 21 h

COCCOCCOCCNc1ccc(NCCOCCOCCOC)c2c1C(=O)c1ccccc1C2=O [(Me-TEG)2DAAQ]
Vcell ([1]; solvent DME): 2.7 V

phthalocyanine Mn-nitride [PcMnN]
Vcell ([1]; solvent MeCN): 2.2 V

[(I2P^−)2Al][OTf] [2b]
discharging plateau (first listed) ([2]; symmetric cell, glass frit): −0.98 V
discharging plateau (second listed) ([2]; symmetric cell, glass frit): −0.24 V
first charging plateau ([2]; symmetric cell, glass frit): −0.97 V
second charging plateau ([2]; symmetric cell, glass frit): −0.21 V
Coulombic efficiency ([2]; symmetric cell, glass frit, 70% state of charge): over 97%
Coulombic efficiency ([2]; symmetric cell, glass frit, 70% state of charge, listed as [(I2P^−)2Al]^+): 97%
overall energy efficiency ([2]; symmetric cell, glass frit, steady decline over 25 cycles): 90 to 70%
cycles over which charging and discharging remain stable ([2]; symmetric nonaqueous RFB configuration, 70% state of charge): over 100 cycles
Coulombic efficiency ([3]; asymmetric NRFB configuration, up to four electrons stored, multiple cycles, separator not stated): 96%
Coulombic efficiency ([3]; asymmetric cell, AEM, storing 4 electrons, 10 cycles, 45 h): 98%
Coulombic efficiency ([4]; n=2, Vcell=1.6 V): 93%
Coulombic efficiency ([4]; n=3, Vcell=1.9 V): 87%
Coulombic efficiency ([4]; n=4, Vcell=2.1 V): 98%

C1=Cc2nc1c(-c1ccccc1)c1ccc([nH]1)c(-c1ccccc1)c1nc(c(-c3ccccc3)c3ccc([nH]3)c2-c2ccccc2)C=C1 [H2TPP]
Vcell ([1]; solvent CH2Cl2): 2.8 V

[bpy(COOMe)2]3Cr
Vcell ([1]; solvent MeCN): 1.8 V

— patent US12665203B2, “Organo-metallic analytes for nonaqueous redox flow batteries” (The Regents of the University of California, priority 2020, dated 2026)
